Patent US20120214193A1, “METHOD FOR MEASUREMENT OF FLUORESCENCE INTENSITY OF VOLTAGE-SENSITIVE FLUORESCENT DYE” (Keio University, priority 2009, published 2012)

Columns and labels:
[1] = Fluorescent intensity of potential-sensitive fluorochromes forming a solid phase on a substrate surface, potassium chloride added, no membrane carrier; conditions: for fluorescent intensity versus concentration of added potassium chloride (FIG. 1): 50 μM fluorochrome on plastic or glass dish, KCl 0, 5, 10, 15, 20 mM; for changes in fluorescent intensity versus concentration of added potassium chloride (FIG. 2): 10 μM and 100 μM fluorochrome on plastic dish, KCl 0-20 mM
[2] = Screening for enhancers of fluorescent intensity and potential-dependent percent change in fluorescent intensity (sensitivity) using solid-phase fluorochrome
[3] = 100 μM Di8-ANEPPS, vitamin E 18.7 μM to 500 μM, KCl 0-50 mM

Row | Compound | fluorescent intensity versus concentration of added potassium chloride (FIG. 1) [1] | changes in fluorescent intensity versus concentration of added potassium chloride (FIG. 2) [1] | also measured
1 | CCCCN(CCCC)c1ccc2cc(/C=C/c3cc[n+](CCCS(=O)(=O)[O-])cc3)ccc2c1 [Di4-ANEPPS] | the fluorescent intensity increased in proportion to the concentration of the added ionizing compound |  | 
2 | CCCCCCCCN(CCCCCCCC)c1ccc2cc(/C=C/c3cc[n+](CCCS(=O)(=O)[O-])cc3)ccc2c1 [Di8-ANEPPS] | the fluorescent intensity increased in proportion to the concentration of the added ionizing compound | changes in the fluorescent intensity occurred in proportion to the concentration of the added ionizing compound | 
3 | CCCCN(CCCC)c1ccc(/C=C/C=C/C=C/c2cc[n+](CCCCS(=O)(=O)[O-])cc2)cc1 [RH237] |  | changes in the fluorescent intensity occurred in proportion to the concentration of the added ionizing compound | 
4 | CC(C)CCC[C@@H](C)[C@H]1CC[C@H]2[C@@H]3CC=C4C[C@@H](O)CC[C@]4(C)[C@H]3CC[C@]12C [cholesterol] |  |  | fluorescent intensity (FIG. 4) ([2]; 100 μM Di8-ANEPPS, cholesterol 18.8 μM or 238 μM, KCl 0-50 mM): enhanced the fluorescent intensity in a dose-dependent manner; fluorescent intensity (FIG. 3(b)) ([2]; Di8-ANEPPS, additive 75 μM (figure legend 18.75 μM), KCl 0-20 mM): have the action for enhancing the fluorescent intensity
5 | vitamin E |  |  | increase of fluorescent intensity (FIG. 4) [2, 3]: about 1.5 times; increase of percent change in fluorescent intensity (FIG. 4) [2, 3]: about 3 times
